Assay results reported in patent publication EP1987837A1 (Technische Universität Dresden Medizinische Fakultät Carl …, dated 2008).
These are yes or no findings as the source states them, for the method shown. Binding seen in cells or lysates may run through a third protein. Some binding calls cover weakened binding; strength is not graded here. Sequences can lack the tags named with a protein.

What was measured:
[1] = target: T1, GST-ICA512601-979 (Homo sapiens (Human)) (UniProt Q16849); assay: GST pull-down, SDS-PAGE and autoradiography
T1 sequence: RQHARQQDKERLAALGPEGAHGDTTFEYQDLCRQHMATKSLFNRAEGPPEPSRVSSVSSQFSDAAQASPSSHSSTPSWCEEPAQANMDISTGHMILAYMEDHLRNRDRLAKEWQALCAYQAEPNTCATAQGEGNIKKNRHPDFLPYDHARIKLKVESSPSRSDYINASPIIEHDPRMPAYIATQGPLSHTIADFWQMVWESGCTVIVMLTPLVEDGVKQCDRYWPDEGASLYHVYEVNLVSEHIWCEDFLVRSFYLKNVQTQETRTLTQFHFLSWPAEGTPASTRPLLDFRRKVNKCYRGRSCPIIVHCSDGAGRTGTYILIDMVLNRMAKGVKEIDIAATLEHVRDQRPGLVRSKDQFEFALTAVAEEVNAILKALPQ

[2] = target: T2, GST-ICA512663-979 (Homo sapiens (Human)) (UniProt Q16849); assay: GST pull-down, SDS-PAGE and autoradiography
T2 sequence: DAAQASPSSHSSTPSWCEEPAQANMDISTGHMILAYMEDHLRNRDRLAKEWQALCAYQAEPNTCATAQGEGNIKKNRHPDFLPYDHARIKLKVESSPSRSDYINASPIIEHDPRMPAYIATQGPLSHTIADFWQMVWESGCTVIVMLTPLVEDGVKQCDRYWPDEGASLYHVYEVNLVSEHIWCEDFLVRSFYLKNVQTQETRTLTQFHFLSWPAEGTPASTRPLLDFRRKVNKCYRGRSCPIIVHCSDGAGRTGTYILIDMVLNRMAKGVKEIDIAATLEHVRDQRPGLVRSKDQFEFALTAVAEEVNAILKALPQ

[3] = target: T3, GST-ICA512700-959 (Homo sapiens (Human)) (UniProt Q16849); assay: GST pull-down, SDS-PAGE and autoradiography
T3 sequence: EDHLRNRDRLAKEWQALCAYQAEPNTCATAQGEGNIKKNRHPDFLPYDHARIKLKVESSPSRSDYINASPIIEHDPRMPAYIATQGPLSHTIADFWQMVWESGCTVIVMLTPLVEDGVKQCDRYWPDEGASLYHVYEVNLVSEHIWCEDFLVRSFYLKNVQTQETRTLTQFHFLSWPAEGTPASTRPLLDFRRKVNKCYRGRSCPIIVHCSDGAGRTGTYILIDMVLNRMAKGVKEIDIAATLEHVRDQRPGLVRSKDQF

[4] = target: T4, GST-ICA512700-979 (Homo sapiens (Human)) (UniProt Q16849); assay: GST pull-down, SDS-PAGE and autoradiography
T4 sequence: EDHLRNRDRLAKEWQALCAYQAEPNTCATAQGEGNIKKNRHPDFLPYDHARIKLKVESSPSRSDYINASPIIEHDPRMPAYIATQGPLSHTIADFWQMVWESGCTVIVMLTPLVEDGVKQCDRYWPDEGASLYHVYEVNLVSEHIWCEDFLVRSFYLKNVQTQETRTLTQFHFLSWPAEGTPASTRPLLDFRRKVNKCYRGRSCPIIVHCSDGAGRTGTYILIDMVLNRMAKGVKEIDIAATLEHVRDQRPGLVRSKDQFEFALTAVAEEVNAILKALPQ

[5] = target: T1, GST-ICA512601-979 (Homo sapiens (Human)); assay: GST pull-down of purified bacterial proteins, anti-His blot
[6] = target: T2, GST-ICA512663-979 (Homo sapiens (Human)); assay: as above
[7] = target: T1, GST-ICA512601-979 (Homo sapiens (Human)); assay: GST pull-down with rising ICA512601-979-His in the presence of 35S-β2-syntrophin, anti-His blot

Measured: binding

B1: 35S-ICA512700-979 (protein)
chain: EDHLRNRDRLAKEWQALCAYQAEPNTCATAQGEGNIKKNRHPDFLPYDHARIKLKVESSPSRSDYINASPIIEHDPRMPAYIATQGPLSHTIADFWQMVWESGCTVIVMLTPLVEDGVKQCDRYWPDEGASLYHVYEVNLVSEHIWCEDFLVRSFYLKNVQTQETRTLTQFHFLSWPAEGTPASTRPLLDFRRKVNKCYRGRSCPIIVHCSDGAGRTGTYILIDMVLNRMAKGVKEIDIAATLEHVRDQRPGLVRSKDQFEFALTAVAEEVNAILKALPQ
modifications: 35S-methionine labelled
binds: [1] | [2] | [3] | [4]

B2: ICA512601-979-His (protein)
chain: RQHARQQDKERLAALGPEGAHGDTTFEYQDLCRQHMATKSLFNRAEGPPEPSRVSSVSSQFSDAAQASPSSHSSTPSWCEEPAQANMDISTGHMILAYMEDHLRNRDRLAKEWQALCAYQAEPNTCATAQGEGNIKKNRHPDFLPYDHARIKLKVESSPSRSDYINASPIIEHDPRMPAYIATQGPLSHTIADFWQMVWESGCTVIVMLTPLVEDGVKQCDRYWPDEGASLYHVYEVNLVSEHIWCEDFLVRSFYLKNVQTQETRTLTQFHFLSWPAEGTPASTRPLLDFRRKVNKCYRGRSCPIIVHCSDGAGRTGTYILIDMVLNRMAKGVKEIDIAATLEHVRDQRPGLVRSKDQFEFALTAVAEEVNAILKALPQHHHHHH
binds: [5] | [6] | [7]

B3: 35S-ICA512601-979 (protein)
chain: RQHARQQDKERLAALGPEGAHGDTTFEYQDLCRQHMATKSLFNRAEGPPEPSRVSSVSSQFSDAAQASPSSHSSTPSWCEEPAQANMDISTGHMILAYMEDHLRNRDRLAKEWQALCAYQAEPNTCATAQGEGNIKKNRHPDFLPYDHARIKLKVESSPSRSDYINASPIIEHDPRMPAYIATQGPLSHTIADFWQMVWESGCTVIVMLTPLVEDGVKQCDRYWPDEGASLYHVYEVNLVSEHIWCEDFLVRSFYLKNVQTQETRTLTQFHFLSWPAEGTPASTRPLLDFRRKVNKCYRGRSCPIIVHCSDGAGRTGTYILIDMVLNRMAKGVKEIDIAATLEHVRDQRPGLVRSKDQFEFALTAVAEEVNAILKALPQ
modifications: 35S-methionine labelled
binds: [1] | [2] | [3] | [4]
